{"sequences": {"note": "Sequences of proteins named here, by UniProt entry; tags and fusion partners are left off. A change or cut given only in a name is not applied to a line headed by its entry.", "UniProt P13489": "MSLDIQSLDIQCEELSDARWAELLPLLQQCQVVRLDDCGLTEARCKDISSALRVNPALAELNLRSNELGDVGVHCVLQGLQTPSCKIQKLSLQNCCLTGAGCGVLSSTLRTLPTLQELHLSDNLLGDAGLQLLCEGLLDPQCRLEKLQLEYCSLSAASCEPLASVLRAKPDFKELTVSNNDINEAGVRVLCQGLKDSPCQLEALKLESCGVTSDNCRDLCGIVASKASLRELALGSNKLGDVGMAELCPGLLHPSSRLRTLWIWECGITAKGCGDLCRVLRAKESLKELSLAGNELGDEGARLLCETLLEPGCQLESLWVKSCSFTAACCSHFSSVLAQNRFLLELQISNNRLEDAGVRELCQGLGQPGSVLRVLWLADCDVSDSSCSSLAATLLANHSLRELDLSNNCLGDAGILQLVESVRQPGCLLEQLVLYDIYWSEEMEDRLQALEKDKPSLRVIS", "UniProt P04843": "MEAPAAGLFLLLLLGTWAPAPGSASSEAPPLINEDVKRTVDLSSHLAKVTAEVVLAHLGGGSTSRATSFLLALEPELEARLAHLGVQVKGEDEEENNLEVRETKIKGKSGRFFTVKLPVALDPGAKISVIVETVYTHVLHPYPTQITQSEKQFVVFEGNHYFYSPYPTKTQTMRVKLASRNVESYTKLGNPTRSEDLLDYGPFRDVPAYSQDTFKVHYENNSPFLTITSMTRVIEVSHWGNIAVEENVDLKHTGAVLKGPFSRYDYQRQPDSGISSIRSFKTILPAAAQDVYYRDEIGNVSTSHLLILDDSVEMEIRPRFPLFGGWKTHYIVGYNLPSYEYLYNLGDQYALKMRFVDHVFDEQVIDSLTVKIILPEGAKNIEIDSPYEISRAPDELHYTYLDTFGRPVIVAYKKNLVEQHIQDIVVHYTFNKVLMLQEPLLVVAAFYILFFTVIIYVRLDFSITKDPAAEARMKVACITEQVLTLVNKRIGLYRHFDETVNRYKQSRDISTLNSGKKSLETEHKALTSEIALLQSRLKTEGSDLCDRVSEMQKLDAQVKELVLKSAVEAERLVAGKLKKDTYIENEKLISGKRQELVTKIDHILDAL", "UniProt P78346": "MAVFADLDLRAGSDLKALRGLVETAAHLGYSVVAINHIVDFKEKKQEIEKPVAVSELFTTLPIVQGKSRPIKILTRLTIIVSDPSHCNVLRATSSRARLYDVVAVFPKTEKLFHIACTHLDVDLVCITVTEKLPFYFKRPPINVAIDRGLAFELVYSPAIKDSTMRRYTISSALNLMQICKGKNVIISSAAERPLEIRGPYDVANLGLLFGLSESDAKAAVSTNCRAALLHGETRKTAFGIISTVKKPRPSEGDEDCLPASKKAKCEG", "UniProt P10155": "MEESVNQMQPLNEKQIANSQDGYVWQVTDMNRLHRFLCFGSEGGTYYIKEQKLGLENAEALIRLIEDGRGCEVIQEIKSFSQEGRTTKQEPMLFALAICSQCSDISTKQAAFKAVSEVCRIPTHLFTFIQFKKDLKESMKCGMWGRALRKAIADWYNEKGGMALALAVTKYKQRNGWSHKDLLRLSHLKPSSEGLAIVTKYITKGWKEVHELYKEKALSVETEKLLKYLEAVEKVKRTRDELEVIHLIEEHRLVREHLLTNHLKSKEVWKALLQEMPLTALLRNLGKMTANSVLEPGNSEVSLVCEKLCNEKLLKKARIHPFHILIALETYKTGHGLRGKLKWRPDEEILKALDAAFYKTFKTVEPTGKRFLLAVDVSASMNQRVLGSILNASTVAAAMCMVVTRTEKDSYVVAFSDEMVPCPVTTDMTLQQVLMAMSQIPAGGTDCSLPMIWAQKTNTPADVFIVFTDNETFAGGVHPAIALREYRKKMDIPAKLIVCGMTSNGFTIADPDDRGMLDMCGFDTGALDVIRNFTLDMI", "UniProt Q7LG56, whole entry, looked up": "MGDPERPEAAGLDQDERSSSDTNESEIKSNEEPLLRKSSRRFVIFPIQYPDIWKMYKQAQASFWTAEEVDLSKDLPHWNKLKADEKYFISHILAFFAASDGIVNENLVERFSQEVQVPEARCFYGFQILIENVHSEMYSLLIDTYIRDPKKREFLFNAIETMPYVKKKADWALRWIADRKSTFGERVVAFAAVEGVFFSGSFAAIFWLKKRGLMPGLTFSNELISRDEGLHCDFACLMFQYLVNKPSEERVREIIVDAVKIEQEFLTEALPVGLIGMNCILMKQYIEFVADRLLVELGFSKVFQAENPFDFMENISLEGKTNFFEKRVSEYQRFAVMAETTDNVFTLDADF", "UniProt O75695": "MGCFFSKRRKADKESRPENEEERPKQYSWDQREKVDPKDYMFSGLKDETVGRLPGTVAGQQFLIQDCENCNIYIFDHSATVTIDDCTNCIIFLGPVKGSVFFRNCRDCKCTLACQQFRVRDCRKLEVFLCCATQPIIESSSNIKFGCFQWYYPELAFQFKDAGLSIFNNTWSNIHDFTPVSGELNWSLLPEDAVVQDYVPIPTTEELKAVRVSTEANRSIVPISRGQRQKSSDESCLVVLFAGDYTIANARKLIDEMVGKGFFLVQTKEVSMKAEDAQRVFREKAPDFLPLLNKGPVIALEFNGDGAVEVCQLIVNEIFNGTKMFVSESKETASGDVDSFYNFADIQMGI", "UniProt O75818": "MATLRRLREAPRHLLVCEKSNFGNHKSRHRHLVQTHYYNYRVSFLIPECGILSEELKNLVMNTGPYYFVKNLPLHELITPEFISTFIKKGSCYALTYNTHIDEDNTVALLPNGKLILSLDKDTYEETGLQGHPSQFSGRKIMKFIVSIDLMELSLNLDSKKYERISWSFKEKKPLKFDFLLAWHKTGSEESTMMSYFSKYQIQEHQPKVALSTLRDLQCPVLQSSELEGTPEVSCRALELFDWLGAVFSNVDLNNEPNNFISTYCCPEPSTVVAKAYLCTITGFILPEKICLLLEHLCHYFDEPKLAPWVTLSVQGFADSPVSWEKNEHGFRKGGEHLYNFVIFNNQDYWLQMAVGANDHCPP", "UniProt Q96BH1": "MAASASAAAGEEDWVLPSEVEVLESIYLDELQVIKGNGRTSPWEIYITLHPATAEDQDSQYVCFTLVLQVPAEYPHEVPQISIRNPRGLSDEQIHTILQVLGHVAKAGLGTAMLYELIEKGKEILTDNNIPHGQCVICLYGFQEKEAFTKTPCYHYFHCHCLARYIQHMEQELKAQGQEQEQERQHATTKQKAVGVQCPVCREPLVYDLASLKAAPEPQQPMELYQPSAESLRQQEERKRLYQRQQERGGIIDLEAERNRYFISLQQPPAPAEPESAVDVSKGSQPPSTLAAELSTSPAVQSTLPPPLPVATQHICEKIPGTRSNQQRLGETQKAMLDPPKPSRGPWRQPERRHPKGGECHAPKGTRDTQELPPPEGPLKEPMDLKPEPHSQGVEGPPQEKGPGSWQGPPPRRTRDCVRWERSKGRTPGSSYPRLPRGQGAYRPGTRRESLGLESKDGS", "UniProt Q86WX3": "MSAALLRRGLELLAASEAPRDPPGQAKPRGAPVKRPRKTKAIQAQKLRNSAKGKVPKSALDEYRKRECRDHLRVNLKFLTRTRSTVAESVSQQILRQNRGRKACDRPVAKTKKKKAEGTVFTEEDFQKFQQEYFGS", "UniProt Q9P2E9": "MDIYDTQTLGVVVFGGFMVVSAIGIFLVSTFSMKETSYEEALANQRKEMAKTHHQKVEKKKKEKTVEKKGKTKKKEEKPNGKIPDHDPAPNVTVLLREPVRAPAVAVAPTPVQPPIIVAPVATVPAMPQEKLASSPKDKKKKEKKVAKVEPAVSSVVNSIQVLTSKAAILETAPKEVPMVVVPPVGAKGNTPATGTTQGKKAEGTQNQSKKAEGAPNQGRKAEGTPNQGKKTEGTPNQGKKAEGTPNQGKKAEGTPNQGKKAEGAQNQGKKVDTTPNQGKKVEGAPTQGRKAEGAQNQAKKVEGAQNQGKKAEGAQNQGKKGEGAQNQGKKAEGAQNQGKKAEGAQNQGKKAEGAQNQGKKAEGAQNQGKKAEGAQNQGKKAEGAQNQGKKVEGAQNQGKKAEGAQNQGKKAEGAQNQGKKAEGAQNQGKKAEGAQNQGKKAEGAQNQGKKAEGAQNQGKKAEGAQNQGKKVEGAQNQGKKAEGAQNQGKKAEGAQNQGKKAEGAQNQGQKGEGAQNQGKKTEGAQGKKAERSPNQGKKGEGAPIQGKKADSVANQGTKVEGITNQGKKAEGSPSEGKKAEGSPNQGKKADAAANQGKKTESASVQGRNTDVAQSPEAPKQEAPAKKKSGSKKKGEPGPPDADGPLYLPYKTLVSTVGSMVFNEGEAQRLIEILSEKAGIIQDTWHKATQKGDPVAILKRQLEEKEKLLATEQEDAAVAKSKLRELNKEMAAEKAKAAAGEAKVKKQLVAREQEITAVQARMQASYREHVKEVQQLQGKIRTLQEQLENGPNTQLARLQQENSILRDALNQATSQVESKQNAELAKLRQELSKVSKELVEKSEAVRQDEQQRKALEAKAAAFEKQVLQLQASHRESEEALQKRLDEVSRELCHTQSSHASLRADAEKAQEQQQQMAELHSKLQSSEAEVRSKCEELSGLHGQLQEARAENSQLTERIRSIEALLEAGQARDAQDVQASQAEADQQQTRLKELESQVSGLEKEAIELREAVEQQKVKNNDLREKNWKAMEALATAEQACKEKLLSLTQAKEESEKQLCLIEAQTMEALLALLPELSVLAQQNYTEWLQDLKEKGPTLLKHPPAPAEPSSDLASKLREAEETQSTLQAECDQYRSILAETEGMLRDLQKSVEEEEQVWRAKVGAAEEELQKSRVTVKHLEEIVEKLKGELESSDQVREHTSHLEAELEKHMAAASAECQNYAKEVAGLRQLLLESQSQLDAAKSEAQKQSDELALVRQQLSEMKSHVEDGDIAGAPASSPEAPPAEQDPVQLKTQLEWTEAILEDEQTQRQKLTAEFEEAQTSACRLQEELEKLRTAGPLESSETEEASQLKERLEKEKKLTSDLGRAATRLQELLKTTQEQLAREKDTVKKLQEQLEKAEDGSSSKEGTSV"}, "source": "the supplement of paper PMC10849652", "note": "The other results are listed elsewhere or left out.", "data": [{"compound": "Cc1ccc(C(=O)N(CCCN)[C@@H](c2nc3cc(Cl)ccc3c(=O)n2Cc2ccccc2)C(C)C)cc1 [ispinesib]", "test": "log2 fold change, soluble protein after heating vs DMSO (PISA); higher = thermal stabilisation; K562 cells, 10 uM, 30 min; active = over 0.2 and 3.5 SD of the protein, either way, in both replicates (recomputed)", "method_in_brief": "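Thermal stability values are relative to control samples and come from duplicates. They are expressed as log2 fold changes. For measurement, K562 cells (2×10^6 cells/mL) received 10 μM compound for 30 min, and aliquots were heated for 3 min over 48°C-58°C, pooled, and extracted at 4°C in PBS with 0.5% NP-40. Soluble protein, the supernatant after 21,000xg for 90 min, was quantified by TMTpro 16plex LC-MS/MS with equalised channel sums.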", "values": [{"target": "RPL9 (UniProt P32969)", "log2 fold change": "inactive: -0.224"}, {"target": "RNH1 (UniProt P13489)", "log2 fold change": "inactive: 0.054"}, {"target": "RPL24 (UniProt P83731)", "log2 fold change": "inactive: -0.218"}, {"target": "RPS17 (UniProt P08708)", "log2 fold change": "inactive: -0.083"}, {"target": "RPL17 isoform 3 (UniProt P18621)", "log2 fold change": "inactive: -0.095"}, {"target": "RPN1 (UniProt P04843)", "log2 fold change": "inactive: -0.021"}, {"target": "RPP30 isoform 2 (UniProt P78346)", "log2 fold change": "inactive: -0.016"}, {"target": "RPL15 (UniProt P61313)", "log2 fold change": "inactive: -0.204"}, {"target": "RO60 (UniProt P10155)", "log2 fold change": "inactive: 0.028"}, {"target": "RRM2B isoform 6 (UniProt Q7LG56)", "log2 fold change": "inactive: 0.011"}, {"target": "RP2 (UniProt O75695)", "log2 fold change": "inactive: -0.057"}, {"target": "RPP40 (UniProt O75818)", "log2 fold change": "inactive: 0.057"}, {"target": "RPL36 (UniProt Q9Y3U8)", "log2 fold change": "inactive: -0.281"}, {"target": "RPL11 (UniProt P62913)", "log2 fold change": "inactive: -0.2"}, {"target": "RPL13 (UniProt P26373)", "log2 fold change": "inactive: -0.349"}, {"target": "RNF25 (UniProt Q96BH1)", "log2 fold change": "inactive: -0.01"}, {"target": "RPL8 (UniProt P62917)", "log2 fold change": "inactive: -0.336"}, {"target": "RPS27 (UniProt P42677)", "log2 fold change": "inactive: -0.111"}, {"target": "RPS19BP1 (UniProt Q86WX3)", "log2 fold change": "inactive: -0.047"}, {"target": "RPL35 (UniProt P42766)", "log2 fold change": "inactive: -0.229"}, {"target": "RPS10 (UniProt P46783)", "log2 fold change": "inactive: -0.072"}, {"target": "RRBP1 (UniProt Q9P2E9)", "log2 fold change": "inactive: -0.294"}, {"target": "RPL22 (UniProt P35268)", "log2 fold change": "inactive: -0.243"}]}]}
